# In PubChem BioAssay AID504834 (National Center for Advancing Translational Sciences (NCATS), 2011):
# Hit rate of the full screen: of about 320,000 compounds, about 22,000 (6.9%) were called active. The shares of active, inactive and inconclusive entries below differ from those in the screen. Calls follow the shape of the dose curve; as a rule, active = well fitted inhibition curve with a large enough effect; inconclusive = small, poorly fitted or top-dose-only effect, or another doubt; inactive = no such curve, though single readings can be large or run the other way. A potency beside an inconclusive call is a rough fit, not a confirmed value.
# Experiment: Primary qHTS for delayed death inhibitors of the malarial parasite plastid, 96 hour incubation
# Conditions: P. falciparum luciferase reporter growth; series mostly up to 28.7 µM; activity change, negative = inhibition: at the top concentration
# Procedure, shortened: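 P. falciparum expressing integrated firefly luciferase, in erythrocytes at 2% hematocrit, 0.05% parasitemia, incubated with compounds 96 h at 37 C, 5% CO2. Growth inhibition read as loss of luminescence; two-generation exposure targets delayed-death apicoplast inhibitors.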
# % is scaled to controls: 0 for no effect and ±100 for the full control effect; potency is read from the fitted curve at half-maximal effect.
SMILES,Potency,"activity change, negative = inhibition"
CC(C)Oc1ccc(CNC(=O)CC(c2ccccc2)c2cc(Cl)ccc2O)cc1 (stereo not drawn),"inconclusive: 18.5 µM [inhibitor, single point]",–
CCCn1c(SC(C)C(=O)NCC2CCCO2)nc2sc(CC)cc2c1=O (stereo not drawn),"inconclusive: 7.38 µM [inhibitor, partial curve]",–
CCN1CCN(c2ccc(Nc3ccnc4ccccc34)cc2)CC1,"inconclusive: 0.329 µM [inhibitor, full curve, poor fit]",–
CC(C)c1ccc(OCC(=O)NNC(=S)NC(=O)c2cccs2)c(Br)c1,"inconclusive: 13.1 µM [inhibitor, single point]",–
O=C(O)Cc1ccc(NC(=O)Nc2ccc3c(c2)OCO3)cc1,–,inactive: 120%
Cc1cc(C)c(OCC(=O)Nc2ccc(S(=O)(=O)N3CCOCC3)cc2)c(C)c1,"inconclusive: 18.5 µM [inhibitor, single point]",–
Cc1cc(=O)n2nc(N3CCC(C(=O)N4CCN(C)CC4)CC3)sc2n1,"inconclusive: 3.7 µM [inhibitor, partial curve, poor fit]",–
CCOc1ccc(CCNC(=O)c2[nH]c(C)c(C(C)=O)c2C)cc1OCC,"inconclusive: 18.5 µM [inhibitor, single point]",–
CCc1ccccc1-n1ncc(C(=O)Nc2ccccc2OC)c1C,active: 13.1 µM,–
COc1ccccc1-c1c(C)nn2c(N3CCCCCC3)cc(C)nc12,active: 9.28 µM,–
COc1ccc(OCCSc2ncnc3nc[nH]c23)cc1,"inconclusive: 0.586 µM [inhibitor, full curve, poor fit]",–
COc1ccc(-n2c(C)cc(C=O)c2C)cc1Cl,–,inactive: 0.886%
CC1CCN(C(=O)c2nc[nH]c2C(=O)O[C@H](C)c2ccccc2)CC1,"inconclusive: 4.15 µM [inhibitor, single point]",–
O=C(NCCc1ccccc1)c1ccc(CS(=O)(=O)Cc2ccc(F)cc2)o1,"inconclusive: 18.5 µM [inhibitor, single point]",–
CC(=O)c1cccc(N(C(=O)CNC(=O)c2ccco2)C(C(=O)NCc2ccco2)c2ccccc2)c1 (stereo not drawn),"inconclusive: 4.15 µM [inhibitor, partial curve]",–
CCOc1ccc(CCNC(=O)CSc2cc(=O)n(C)c3cc(Cl)ccc23)cc1OCC,"inconclusive: 18.5 µM [inhibitor, single point]",–
O=C(Nc1cccc(S(=O)(=O)N2CCOCC2)c1)c1cn(-c2ccccc2)nc1-c1ccc(F)cc1,–,inactive: 39.8%
CCc1nnc(NC(=O)CSc2ccc(Cl)cc2)s1,"inconclusive: 10.4 µM [inhibitor, single point]",–
COC(=O)CCCC1=CC2=C(c3ccccc3)C(=O)C(C)(OC(=O)C3CCCC3)C(=O)C2=CN1Cc1ccc(OC)cc1 (stereo not drawn),"inconclusive: 18.5 µM [inhibitor, single point]",–
Cc1cc(C)nc(NC(=O)c2c(Cl)cccc2Cl)n1,–,inactive: 42.1%
COC(=O)[C@@]12CCCCN1[C@H](c1ccc(-c3cccc(Cl)c3)cc1)[C@H]1C(=O)N(C)C(=O)[C@H]12,"inconclusive: 10.4 µM [inhibitor, single point]",–
COc1ccc(NC(=O)CSc2nnc(CN3CCOCC3)n2-c2ccccc2)cc1Cl,"inconclusive: 8.28 µM [inhibitor, partial curve, poor fit]",–
CCOc1ccc(-c2nc(N)nc(C)c2-c2ccc(Cl)cc2)c(O)c1,"inconclusive: 3.7 µM [inhibitor, full curve, poor fit]",–

SMILES,Potency,"activity change, negative = inhibition"
CCOc1ccc(NS(=O)(=O)c2ccc(C(=O)NC3CCC(O)CC3)cc2)cc1 (stereo not drawn),–,inactive: -15.4%
CCCCN(CCCC)NC(=O)c1ccccc1,"inconclusive: 5.22 µM [inhibitor, partial curve, poor fit]",–
Cc1cc(C)cc(N=C2NC(=O)/C(=C/c3cccs3)S2)c1,"inconclusive: 9.28 µM [inhibitor, single point]",–
Cc1ccc2c(CN3CCCCC3)cc(=O)oc2c1C,"inconclusive: 4.15 µM [inhibitor, partial curve, poor fit]",–
Cc1cc(Nc2ccccc2)c2c([N+](=O)[O-])c(C)cc(C)c2n1,"inconclusive: 3.29 µM [inhibitor, partial curve, poor fit]",–
O=C(NC(=S)NC1CCS(=O)(=O)C1)c1ccccc1 (stereo not drawn),"inconclusive: 10.4 µM [inhibitor, single point]",–
CCOC(=O)c1cn(-c2ccc([N+](=O)[O-])cc2)c2cc(Cl)c([N+](=O)[O-])cc2c1=O,"inconclusive: 13.1 µM [inhibitor, single point]",–
CSc1nc2c(c(=O)[nH]c(=O)n2C)n1Cc1ccc(Cl)cc1,"inconclusive: 1.31 µM [inhibitor, full curve]",–
Cc1ccc(/C=C/C(=O)N2CCN(S(=O)(=O)c3ccc(C)c(C)c3)CC2)o1,active: 5.86 µM,–
COc1ccccc1N1CCN(CC(O)COc2c(OC)cccc2OC)CC1 (stereo not drawn),–,inactive: 0%
N#Cc1c(N)n(Cc2ccccc2)c(=O)c2cc([N+](=O)[O-])ccc12,"inconclusive: 18.5 µM [inhibitor, single point]",–
Cc1ccc(S(=O)(=O)Nc2ccc3c(c2)nc(CN2CCCC2)n3C)cc1,"inconclusive: 16.5 µM [inhibitor, single point]",–
CCSc1n[nH]c(=O)[nH]c1=O,–,inactive: -6.15%
COc1ccc(NC(=O)CC2C(=O)N(c3ccc(F)cc3)C(=S)N2NC(=O)c2ccc(Cl)cc2)cc1 (stereo not drawn),–,inactive: 57.7%
Cn1c2ccccc2c2nnc(SCC(=O)Nc3cccc(O)c3)nc21,"inconclusive: 16.5 µM [inhibitor, partial curve, poor fit]",–
CCn1cc(Cl)c(C(=O)NNC(=O)CCn2ccc([N+](=O)[O-])n2)n1,–,inactive: 17.8%
COc1ccc(/C=C2\SC(=S)N(CCC(=O)N3CCOCC3)C2=O)cc1,"inconclusive: 1.31 µM [inhibitor, full curve, poor fit]",–
CCOC(=O)C1CCN(CCC(=O)Nc2ccc(F)cc2)CC1,"inconclusive: 18.5 µM [inhibitor, single point]",–
CCOC(=O)N/N=C\c1ccc([N+](=O)[O-])s1,"inconclusive: 2.33 µM [inhibitor, full curve, poor fit]",–
CCC(=O)NC(=S)Nc1ccc(NC(=O)COc2ccc(Cl)c(C)c2)cc1,"inconclusive: 18.5 µM [inhibitor, single point]",–
O=C(/C=C/c1ccc2c(c1)OCO2)c1ccc(F)cc1,"inconclusive: 18.5 µM [inhibitor, single point]",–
Cc1cc(=O)[nH]c(NN=C2C3CC4CC(C3)CC2C4)n1,"inconclusive: 18.5 µM [inhibitor, single point]",–
CCOCCCN(C(=O)Cn1nnc2ccccc21)C(C(=O)NCc1ccco1)c1ccncc1 (stereo not drawn),"inconclusive: 16.5 µM [inhibitor, partial curve, poor fit]",–

# Two records drawn at random from the list so far, as already listed:
SMILES,Potency,"activity change, negative = inhibition"
CCOCCCN(C(=O)Cn1nnc2ccccc21)C(C(=O)NCc1ccco1)c1ccncc1 (stereo not drawn),"inconclusive: 16.5 µM [inhibitor, partial curve, poor fit]",–
Cc1cc(C)cc(N=C2NC(=O)/C(=C/c3cccs3)S2)c1,"inconclusive: 9.28 µM [inhibitor, single point]",–

# Next part

SMILES,Potency,"activity change, negative = inhibition"
Clc1ccccc1/C=C/C=N/Nc1nc(N2CCOCC2)nc(N2CCOCC2)n1,"inconclusive: 2.62 µM [inhibitor, partial curve, poor fit]",–
CCC(C)[C@H](NC(=O)Nc1ccc(C(C)=O)cc1)C(=O)OC (stereo partly drawn),–,inactive: 34.3%
Cc1ccc(N2C(=O)NC(=O)/C(=C/c3ccc(-c4ccc(C(=O)O)c(Cl)c4)o3)C2=O)cc1,"inconclusive: 18.5 µM [inhibitor, single point]",–
Cc1ccccc1CNC(=O)c1ccccc1,–,inactive: 3.23%
Cc1ccc(-n2nc(C)c3c2OC(N)=C(C#N)C3c2ccncc2)cc1 (stereo not drawn),active: 0.522 µM,–
CC(C)=C1SC(N2CCN(c3ccc(C)c(Cl)c3)CC2)=NC1=O,–,inactive: 0.284%
CSC1=NC(C)(C)C=C(/C=C/c2ccc(Cl)cc2Cl)N1,active: 11.7 µM,–
COc1cccc(-n2cnnc2SCC(=O)NC2CC2)c1,–,inactive: -22.8%
COC(=O)c1ccc(/C=N/OCC(=O)NCc2ccc(F)cc2)cc1,–,inactive: -3.12%
Cc1ccc(OCC(=O)N2N=C(c3cccnc3)CC2(O)C(F)(F)F)cc1C (stereo not drawn),active: 9.28 µM,–
Cc1cc(=O)oc2c1c(C)nn2-c1ccc(C(=O)OC(C)C)cc1,"inconclusive: 10.4 µM [inhibitor, single point]",–
CCC(CC)C(=O)c1c[nH]c(C(=O)NCCc2ccccn2)c1,"inconclusive: 2.94 µM [inhibitor, single point]",–
Cc1nonc1OCC(C)(COc1nonc1C)NC(=O)c1ccc(Cl)cc1,active: 4.65 µM,–
CCOc1ccccc1Nc1ncnc2c1cnn2-c1ccccc1,"inconclusive: 11.7 µM [inhibitor, partial curve, poor fit]",–
O=C(Nc1ccc(Cl)c(Cl)c1)c1ccccc1NC(=O)C1CC=CCC1C(=O)O (stereo not drawn),"inconclusive: 11.7 µM [inhibitor, single point]",–
O=C(c1ccc(Cl)cc1)N(Cc1ccccc1F)N1C(=O)CCCC1=O,"inconclusive: 11.7 µM [inhibitor, single point]",–
COc1cc(-c2nnc(SCC3(c4ccc(Br)cc4)OCCO3)o2)cc(OC)c1OC,active: 13.1 µM,–
C[C@H](NS(=O)(=O)c1ccc2c(c1)OCCCO2)C(=O)N1CCN(c2ccc(F)cc2)CC1,"inconclusive: 9.28 µM [inhibitor, partial curve]",–
CCOc1cccc(OCCCOc2ccccc2)c1,–,inactive: -3.44%
COC(=O)CNc1nc(Cl)nc(Nc2ccc(C)cc2)n1,"inconclusive: 13.1 µM [inhibitor, single point]",–
O=C(CCC(=O)NCCO)NCCO,"inconclusive: 0.0066 µM [inhibitor, full curve, poor fit]",–
OCCCNc1cc(-c2ccccc2)nc2cc(-c3ccc(F)cc3)nn12,–,inactive: 4.1%
